These results are taken from PubChem BioAssay AID1487 (National Center for Advancing Translational Sciences (NCATS), 2009).

Some of the results follow. These are further read-outs of the screen, such as a control signal, another cell line or another target. No call is given for them. The list favours compounds with an active or inconclusive main result. Words in brackets tell the shape of the fitted curve; partial curves, single points and poor fits give uncertain potencies.

The nature of the assay: qHTS Assay for Modulators of Lamin A Splicing. Particulars: HeLa LMNA splicing GFP/RFP minigene ratio, 48 h. Summed up: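 S3 HeLa stable clones carrying a lamin A-EGFP splicing minigene plus DsRed2 were seeded at 600 cells/well in Opti-MEM with 2% FBS, pin-dosed and incubated 48 h at 37°C. Acumen cytometry (488 nm) gave the GFP/RFP total-intensity ratio.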
Setting [1] is: measured here: GFP splicing reporter channel.
The mark [2] stands for this setting: measured here: RFP viability control channel.

As for `COc1ccc(OC)c(C(=O)c2coc3ccc(OC(C)=O)cc23)c1`, the AC50 is 35.5 µM [rising, single point] under setting [1] and 35.5 µM [rising, single point] under setting [2].
As for `Cc1ccccc1Oc1cc(NC(=O)CCCn2nc(C)c([N+](=O)[O-])c2C)cc([N+](=O)[O-])c1`, the half-maximal activity concentration (AC50) under setting [2] is 35.5 µM [rising, single point].
On the same count and under the same terms, the same measure for `Cc1cc(=O)n(CC(=O)N2CCN(c3ccc(F)cc3)CC2)c2c1c(C)nn2C`: 0.0112 µM [falling, full curve, poor fit].
On to `Cn1c(=O)c2c(ncn2Cc2ccc(Cl)c(Cl)c2)n(C)c1=O`, for which the AC50 under setting [1] was 12.6 µM [rising, partial curve] and the half-maximal activity concentration (AC50) under setting [2] is 8.91 µM [rising, partial curve].
For `O=C(CN1C(=O)CCC1=O)Nc1nc(-c2ccc(Cl)s2)cs1`, the half-maximal activity concentration (AC50) under setting [2] was 15.8 µM [rising, single point].
On to `Cc1ccc(/C=C/c2nc3ccccc3[nH]2)o1`, for which the concentration at half-maximal activity (AC50) under setting [1] is 0.00316 µM [falling, full curve, poor fit] and the half-maximal activity concentration (AC50) under setting [2] was 0.01 µM [falling, full curve, poor fit].
With `C=CCOc1c(CNn2cn[nH]c2=S)cccc1OC`, the half-maximal activity concentration (AC50) under setting [2] is 0.447 µM [falling, full curve].
The same measure, in the same setting: then `Cc1ccc(C(=O)c2ccc(N3CCOCC3)c(F)c2)cc1`, with 20 µM [rising, single point].
For `Nc1ccc(C(=O)O)c(O)c1`, the AC50 runs as follows: under setting [1], 1.78 µM [falling, partial curve, poor fit]; under setting [2], 5.62 µM [rising, single point].
As for `CCN(Cc1ccccc1)S(=O)(=O)c1ccc(C(=O)N2CCN(c3nc4ccccc4s3)CC2)cc1`, the AC50 under setting [2] is 8.91 µM [rising, partial curve].
For the compound `CN1CCN(CCC(=O)Nc2ccc(F)c(F)c2)CC1`, the AC50 under setting [2] is 12.6 µM [falling, single point].
With `CCc1ccc(NC(=O)C(=O)NCC(c2cccnc2)N2CCOCC2)cc1` (stereo not drawn), the AC50 is, setting by setting: under setting [1], 35.5 µM [falling, single point]; under setting [2], 35.5 µM [falling, single point].
On to `O=C(c1cccc(F)c1)N1CCN(C(=O)c2cc(-c3ccc(Cl)cc3Cl)on2)CC1`, for which the half-maximal activity concentration (AC50) under setting [2] was 35.5 µM [rising, single point].
Still for that read-out and setting: the same measure for `O=C(Nc1cccnc1)c1cc2nc(C3CC3)cc(C(F)(F)F)n2n1`: 2 µM [falling, single point]; for `CC1CCc2sc(C(=O)NCc3ccc(F)cc3)cc2C1` (stereo not drawn): 12.6 µM [rising, single point].
For the compound `Cc1nn(Cc2ccccc2Cl)c2sc(C(=O)NCCCn3ccnc3)cc12`, the concentration at half-maximal activity (AC50) was 3.16 µM [rising, partial curve, poor fit] under setting [1] and 12.6 µM [rising, single point] under setting [2].
With `Nn1c(-c2ccccc2Cl)nnc1-c1ccccc1Cl`, the AC50 under setting [2] is 35.5 µM [rising, single point].
In the case of `Cc1ccccc1CSc1nc2cccnc2n1Cc1ccc(C(=O)NCCc2cccs2)cc1`, the AC50 is, setting by setting: under setting [1], 25.1 µM [falling, partial curve, poor fit]; under setting [2], 31.6 µM [falling, partial curve].
As for `CCOC(=O)c1[nH]c2ccc(OC)cc2c1NC(=O)c1ccc(OC)c(OC)c1`, the half-maximal activity concentration (AC50) under setting [2] is 7.08 µM [rising, partial curve].
Still for that read-out and setting: then `COc1cc(CNCc2ccccn2)ccc1OCc1ccccc1Cl`, with 25.1 µM [rising, single point].
Take `CCOc1cccc2sc(N(CCN(C)C)C(=O)c3ccc(Br)s3)nc12`: the AC50 under setting [1] is 1.58 µM [falling, full curve, poor fit].
`CCc1ncc(C(=O)c2ccc(OC)cc2)n1C`: the AC50 under setting [2] is 22.4 µM [rising, partial curve, poor fit].
As to `S=C(NCc1cccs1)Nc1cccc(Cl)c1Cl`, the AC50 under setting [2] is 35.5 µM [rising, single point].
Turning to `CSc1nsc(SCC(=O)Nc2nc3ccccc3s2)n1`, the AC50 is 12.6 µM [rising, single point] under setting [1] and 25.1 µM [rising, single point] under setting [2].
In the case of `Cc1ccc(-c2ccc(/C=N\NC(=O)c3cc4c(ccc5ccccc54)o3)o2)cc1[N+](=O)[O-]`, the AC50 by setting is: under setting [1], 15.8 µM [falling, single point]; under setting [2], 12.6 µM [falling, partial curve].
Regarding `O=C(/C(=C(\[O-])c1ccccc1)[n+]1ccc2ccccc2c1)c1ccc(Cl)cc1`, the concentration at half-maximal activity (AC50) reads like this: under setting [1], 0.501 µM [rising, full curve]; under setting [2], 3.98 µM [rising, full curve].
For `CCCc1cc(C(=O)Cc2ccc(C(=O)OCC)o2)c(O)cc1O`, the half-maximal activity concentration (AC50) reads like this: under setting [1], 35.5 µM [rising, single point]; under setting [2], 28.2 µM [rising, single point].
As for `CCOc1ccc(OCC)c(NC(=O)C2CCN(c3cnccn3)CC2)c1`, the half-maximal activity concentration (AC50) under setting [1] is 11.2 µM [rising, partial curve].
As for `O=C(CN1C(=O)NC2(CCSC2)C1=O)NCc1ccccc1` (stereo not drawn), under setting [2], the half-maximal activity concentration (AC50) was 0.01 µM [rising, full curve, poor fit].
As for `O=C(Nc1ccc2[nH]c(=S)sc2c1)Nc1ccccc1F`, the AC50 is 3.98 µM [falling, full curve] under setting [1] and 2.82 µM [falling, full curve] under setting [2].
On to `Cc1nc(SCC(=O)c2cc3ccccc3oc2=O)c(C#N)c(C)c1C(=O)Nc1ccccc1`, for which the AC50 under setting [1] was 2.82 µM [falling, full curve] and the AC50 under setting [2] is 2.82 µM [falling, full curve, poor fit].
Regarding `O=C(Cn1cnc2ccccc2c1=O)c1ccc2ccccc2c1`, the AC50 by setting is: under setting [1], 11.2 µM [rising, single point]; under setting [2], 22.4 µM [rising, single point].
Consider `CN(C)S(=O)(=O)c1cccc(-c2nn(-c3ccccc3)cc2/C=C2\SC(=S)NC2=O)c1`, for which the AC50 runs as follows: under setting [1], 8.91 µM [rising, partial curve]; under setting [2], 11.2 µM [rising, partial curve].
On to `N#Cc1c(NC(=O)CSc2n[nH]c(Cc3ccccc3)n2)oc(-c2ccccc2)c1-c1ccccc1`, for which the concentration at half-maximal activity (AC50) under setting [2] was 22.4 µM [rising, partial curve].
With `COc1ccc(NC(=O)c2cccs2)c([N+](=O)[O-])c1`, the AC50 under setting [1] is 35.5 µM [rising, single point].
For `O=C(Nc1ccccc1C(F)(F)F)N1CCN(c2ccc3nnc(-c4ccc(F)cc4)n3n2)CC1`, the AC50 under setting [2] is 31.6 µM [rising, single point].
On to `CC(C)(C)NCC(O)COc1ccccc1C(=O)CCc1ccccc1` (stereo not drawn), for which, under setting [1], the AC50 is 1.58 µM [falling, partial curve, poor fit].
`COc1cc(/C=C2/C(=O)c3cccc([N+](=O)[O-])c3C2=O)c(Br)cc1O`: under setting [2], the half-maximal activity concentration (AC50) is 0.0126 µM [rising, full curve, poor fit].
Regarding `CCOC(=O)N1CCN(C(=O)CCSCCc2ccncc2)CC1`, the half-maximal activity concentration (AC50) under setting [1] is 14.1 µM [rising, single point] and the AC50 under setting [2] is 35.5 µM [rising, single point].
For `N#C/C(=C/c1ccc(Sc2nc3ccccc3[nH]2)o1)c1cccc(F)c1`, the concentration at half-maximal activity (AC50) under setting [2] was 11.2 µM [rising, partial curve, poor fit].
Regarding `CCCNS(=O)(=O)c1ccc(CCC(=O)NCCc2ccc(OC)c(OC)c2)cc1`, under setting [1], the concentration at half-maximal activity (AC50) was 0.1 µM [rising, full curve, poor fit].
On to `CC1CCCC(NC(=S)Nc2ccc(SC(F)F)cc2)C1C` (stereo not drawn), for which the AC50 under setting [1] is 17.8 µM [rising, single point] and the AC50 under setting [2] was 25.1 µM [rising, single point].
On to `Cn1c(=O)[nH]c(=O)c2c1nc(Br)n2CCOc1ccccc1`, for which the AC50 under setting [2] was 35.5 µM [rising, single point].
`CCCCCn1c(=N)n(CC(O)COc2ccccc2OC)c2ccccc21` (stereo not drawn): the AC50 reads like this: under setting [1], 31.6 µM [rising, single point]; under setting [2], 25.1 µM [rising, single point].
In the case of `Cc1cccc(OCC(=O)Nc2ccc3nc(Nc4cccc(Cl)c4)cc(C)c3c2)c1`, the concentration at half-maximal activity (AC50) by setting is: under setting [1], 20 µM [falling, partial curve]; under setting [2], 11.2 µM [falling, partial curve].
For `Cc1cc(C)n2nc(S(=O)(=O)N(C)Cc3ccccc3)nc2n1`, the AC50 by setting is: under setting [1], 0.00501 µM [falling, full curve, poor fit]; under setting [2], 0.00447 µM [falling, full curve, poor fit].
In the case of `CCCCC/C=C\C/C=C\C/C=C\CCCCC(=O)O`, under setting [1], the AC50 was 0.00708 µM [falling, full curve, poor fit].
For `CC(C)c1ccc2oc(=O)cc(CN3CCN(c4ccccc4)CC3)c2c1`, the AC50 was 14.1 µM [rising, partial curve] under setting [1] and 31.6 µM [rising, single point] under setting [2].
For `COc1ccc(OCC(O)Cn2c(Nc3cccc(C)c3)nc3c2c(=O)n(C)c(=O)n3C)cc1` (stereo not drawn), the half-maximal activity concentration (AC50) under setting [2] was 0.112 µM [rising, full curve, poor fit].
For the compound `N#Cc1nc(COc2ccc(Br)cc2)oc1NCCCn1ccnc1`, the half-maximal activity concentration (AC50) under setting [2] was 2.82 µM [rising, full curve].
With `CCC(C)n1c(SCC(=O)Nc2ccccc2C(F)(F)F)nc2ccsc2c1=O` (stereo not drawn), the AC50 by setting is: under setting [1], 12.6 µM [rising, partial curve]; under setting [2], 20 µM [rising, single point].
Regarding `Cc1ccc(-c2nc3cccnc3s2)cc1NC(=O)Cc1ccccc1`, the AC50 under setting [2] was 11.2 µM [rising, partial curve].
As to `CCOC(=O)c1ccc(NC(=O)CSc2nc3ncccc3[nH]2)cc1`, the AC50 runs as follows: under setting [1], 14.1 µM [rising, single point]; under setting [2], 35.5 µM [rising, single point].
Consider `COc1ccc(NC(=O)CN2C(=O)C(c3ccccc3)=NC23CCCCCC3)cc1OC`, for which the half-maximal activity concentration (AC50) under setting [2] was 15.8 µM [rising, partial curve, poor fit].
On the same count and under the same terms, then `COC(=O)c1c(NC(=O)c2ccccc2[N+](=O)[O-])sc2c1CC(C)(C)NC2(C)C`, with 11.2 µM [rising, single point].
